According to PMC12507952:
These are yes or no findings as the source states them, for the method shown. Binding seen in cells or lysates may run through a third protein. A result given as binding can be weak or reduced; the word gives no strength.

Sequences of proteins named here, by UniProt entry; tags and fusion partners are left off. A change or cut given only in a name is not applied to a line headed by its entry.
UniProt E2JF22: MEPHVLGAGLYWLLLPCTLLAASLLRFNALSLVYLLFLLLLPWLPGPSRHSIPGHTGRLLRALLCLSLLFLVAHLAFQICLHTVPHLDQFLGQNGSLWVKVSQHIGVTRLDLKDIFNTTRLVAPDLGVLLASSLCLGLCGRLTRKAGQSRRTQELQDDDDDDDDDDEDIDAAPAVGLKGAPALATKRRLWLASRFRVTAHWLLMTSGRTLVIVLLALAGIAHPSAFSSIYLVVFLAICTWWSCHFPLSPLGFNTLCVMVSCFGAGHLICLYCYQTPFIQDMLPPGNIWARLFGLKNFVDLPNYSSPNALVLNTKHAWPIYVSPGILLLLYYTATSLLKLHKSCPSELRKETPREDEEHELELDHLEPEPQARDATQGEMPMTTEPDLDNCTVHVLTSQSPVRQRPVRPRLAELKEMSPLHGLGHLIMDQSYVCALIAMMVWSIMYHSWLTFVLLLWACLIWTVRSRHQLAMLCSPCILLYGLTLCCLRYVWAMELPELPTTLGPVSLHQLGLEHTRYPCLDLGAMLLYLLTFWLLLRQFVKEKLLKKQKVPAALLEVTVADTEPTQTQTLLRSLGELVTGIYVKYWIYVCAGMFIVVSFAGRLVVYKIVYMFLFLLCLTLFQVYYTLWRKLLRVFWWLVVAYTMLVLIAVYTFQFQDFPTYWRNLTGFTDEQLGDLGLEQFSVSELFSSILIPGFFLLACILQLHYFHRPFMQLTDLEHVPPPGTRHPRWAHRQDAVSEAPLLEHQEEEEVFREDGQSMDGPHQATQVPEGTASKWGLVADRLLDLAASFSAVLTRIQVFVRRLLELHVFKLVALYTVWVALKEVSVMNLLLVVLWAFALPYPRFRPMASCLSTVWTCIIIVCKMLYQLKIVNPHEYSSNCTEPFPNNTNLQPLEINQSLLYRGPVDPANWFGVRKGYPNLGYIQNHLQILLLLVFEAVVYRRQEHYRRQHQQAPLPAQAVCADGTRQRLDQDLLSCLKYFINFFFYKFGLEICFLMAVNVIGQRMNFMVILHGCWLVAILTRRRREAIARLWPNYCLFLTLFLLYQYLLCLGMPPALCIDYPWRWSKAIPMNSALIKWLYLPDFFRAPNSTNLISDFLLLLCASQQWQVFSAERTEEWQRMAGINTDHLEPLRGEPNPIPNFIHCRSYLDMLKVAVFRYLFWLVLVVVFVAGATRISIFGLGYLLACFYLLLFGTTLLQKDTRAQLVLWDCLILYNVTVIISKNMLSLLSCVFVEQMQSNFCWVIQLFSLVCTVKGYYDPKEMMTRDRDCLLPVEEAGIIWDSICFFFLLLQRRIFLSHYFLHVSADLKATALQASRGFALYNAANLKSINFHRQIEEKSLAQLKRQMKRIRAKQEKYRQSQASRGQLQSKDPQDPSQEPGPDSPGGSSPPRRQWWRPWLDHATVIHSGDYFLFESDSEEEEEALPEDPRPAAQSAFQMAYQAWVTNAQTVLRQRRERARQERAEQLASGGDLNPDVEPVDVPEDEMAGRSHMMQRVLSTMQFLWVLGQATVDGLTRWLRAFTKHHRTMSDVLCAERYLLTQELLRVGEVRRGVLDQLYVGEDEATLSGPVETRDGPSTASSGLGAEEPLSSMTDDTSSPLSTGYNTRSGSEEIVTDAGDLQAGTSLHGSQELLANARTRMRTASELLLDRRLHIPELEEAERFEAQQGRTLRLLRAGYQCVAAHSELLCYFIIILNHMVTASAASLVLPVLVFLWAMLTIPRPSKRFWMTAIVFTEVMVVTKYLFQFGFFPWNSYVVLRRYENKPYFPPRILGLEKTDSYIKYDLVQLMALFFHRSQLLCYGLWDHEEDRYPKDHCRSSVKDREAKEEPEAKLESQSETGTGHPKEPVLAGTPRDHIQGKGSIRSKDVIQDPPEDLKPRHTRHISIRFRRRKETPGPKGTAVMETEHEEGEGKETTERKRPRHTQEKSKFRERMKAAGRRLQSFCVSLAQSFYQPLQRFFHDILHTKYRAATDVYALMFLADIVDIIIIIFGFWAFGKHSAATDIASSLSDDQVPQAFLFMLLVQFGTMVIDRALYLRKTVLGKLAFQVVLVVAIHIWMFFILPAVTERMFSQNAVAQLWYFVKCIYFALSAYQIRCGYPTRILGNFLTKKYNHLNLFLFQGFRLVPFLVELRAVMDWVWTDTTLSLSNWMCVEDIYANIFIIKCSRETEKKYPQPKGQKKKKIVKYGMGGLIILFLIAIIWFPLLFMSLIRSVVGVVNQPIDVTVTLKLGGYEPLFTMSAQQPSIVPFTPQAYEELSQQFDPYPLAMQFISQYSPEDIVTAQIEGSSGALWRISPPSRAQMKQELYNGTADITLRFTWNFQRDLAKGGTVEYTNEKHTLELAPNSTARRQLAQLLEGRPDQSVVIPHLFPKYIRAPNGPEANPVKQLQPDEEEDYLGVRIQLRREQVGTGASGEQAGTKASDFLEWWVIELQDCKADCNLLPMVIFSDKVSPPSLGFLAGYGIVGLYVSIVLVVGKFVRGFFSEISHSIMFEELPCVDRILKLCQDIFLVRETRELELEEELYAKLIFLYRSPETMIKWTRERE
UniProt P63330: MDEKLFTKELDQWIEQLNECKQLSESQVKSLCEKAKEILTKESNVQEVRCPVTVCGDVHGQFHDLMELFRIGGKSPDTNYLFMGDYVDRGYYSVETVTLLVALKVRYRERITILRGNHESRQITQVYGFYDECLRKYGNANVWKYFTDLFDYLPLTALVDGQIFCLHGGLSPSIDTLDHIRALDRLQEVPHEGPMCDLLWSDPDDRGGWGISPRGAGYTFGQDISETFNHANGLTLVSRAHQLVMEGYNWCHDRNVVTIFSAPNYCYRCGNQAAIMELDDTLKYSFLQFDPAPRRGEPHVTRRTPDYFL

Molecular target: Piezo1 (mouse (endogenous in bone marrow-derived pre-OCs)) (UniProt E2JF22)
Assay: co-IP; lysate of pre-OCs (RIPA buffer with protease inhibitors), stimulated with Yoda1 for 30 min; anti-Piezo1 antibody overnight at 4°C, Protein A/G magnetic beads, washed with TBST; blot with anti-PP2A

In the case of “protein phosphatase 2A (PP2A) (from UniProt P63330) (enzyme)”, the binding is reported as “binds”.
